Data as given in PubChem BioAssay AID504793 (Drosophila RNAi Screening Center, 2011)
Assay: 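Knock-downs allowing continued mitosis even though DNA is damaged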 (primary screen). Cells: Drosophila S2R+ cells. Knock-down reagent: long dsRNA against Drosophila genes, about 0.25 µg dsRNA per well. Duration: 4 days of dsRNA, then 4 hours of drug before read-out. Conditions: doxorubicin 0.5 µM for 4 hours to cause double-strand breaks, in cells also given a low, harmless dose of dsRNA against nbs to sensitise the assay. Detection: 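Per-well count of mitotic cells stained for phospho-histone H3 after doxorubicin exposure, used as mitotic index; counts are raw and not normalised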. Direction: mitotic cells: higher = more cells in mitosis, weaker G2 arrest. Call rule: 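Genes are called active only when high mitotic counts were reproduced with independent dsRNAs and mitosis was checked for delay without damage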. Calls: active = confirmed in follow-up tests; inactive = not confirmed.
The screen tested about 23,000 reagents; this is a random part of those that have a named target and a result. In the full data, 62 (0.27%) got an active call. 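Calls come from follow-up tests whose scores are not deposited, so confirmed genes may have low counts here; counts are not normalised per plate.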 Raw values vary from plate to plate and are shown uncorrected. Reagents against one gene are numbered here. No sequences are given here.

The opening 2 entries, to show the layout:
Tom (Twin of m4) #1
- mitotic cells, replicate 1: 9
- call: inactive

Tom (Twin of m4) #2
- mitotic cells, replicate 1: 6
- call: inactive

Main list, from the start:
Tom (Twin of m4) #1
- mitotic cells, replicate 1: 9
- call: inactive

Tom (Twin of m4) #2
- mitotic cells, replicate 1: 6
- call: inactive

Pef (Peflin)
- mitotic cells, replicate 1: 12
- call: inactive

Atg12 (Autophagy-related 12)
- mitotic cells, replicate 1: 8
- call: inactive

Cyp1 (Cyclophilin 1) #1
- mitotic cells, replicate 1: 12
- call: inactive

Cyp1 (Cyclophilin 1) #2
- mitotic cells, replicate 1: 5
- call: inactive

Iswi (Imitation SWI) #1
- mitotic cells, replicate 1: 9
- call: inactive

Iswi (Imitation SWI) #2
- mitotic cells, replicate 1: 11
- call: inactive

SP2353 #1
- mitotic cells, replicate 1: 2
- call: inactive

SP2353 #2
- mitotic cells, replicate 1: 1
- call: inactive

polyph (polyphemus)
- mitotic cells, replicate 1: 5
- call: inactive

ftz (fushi tarazu) #1
- mitotic cells, replicate 1: 1
- call: inactive

ftz (fushi tarazu) #2
- mitotic cells, replicate 1: 2
- call: inactive

AP-2alpha (Adaptor Protein complex 2, alpha subunit) #1
- mitotic cells, replicate 1: 6
- call: inactive

AP-2alpha (Adaptor Protein complex 2, alpha subunit) #2
- mitotic cells, replicate 1: 5
- call: inactive
